{"source": "patent US9029602B2", "about": "“Anti-microbial and anti-static surface treatment agent with quaternary ammonium salt as active ingredient and method for preventing static electricity in polymer fibers using same” (Industry-Academic Cooperation Foundation, Yeungnam …, priority 2010, dated 2015)", "key": {"[1]": {"assay": "Triboelectrification (JIS L 1094) of fabric surface-treated as in Example 2 (cerium ammonium nitrate catalyst)"}, "[2]": {"assay": "Triboelectrification of nylon 66 surface-treated with E-beam as in Example 3"}, "[3]": {"assay": "Triboelectrification of silk surface-treated with E-beam as in Example 4", "conditions": "fiber Silk"}, "[4]": {"assay": "Triboelectrification of nylon 66 surface-treated with E-beam as in Example 4", "conditions": "fiber Nylon"}, "[5]": {"conditions": "abrasive cloth cotton, warp thread, weight ratio 50%"}, "[6]": {"conditions": "abrasive cloth cotton, weft, weight ratio 50%"}, "[7]": {"conditions": "abrasive cloth wool, warp thread, weight ratio 50%"}, "[8]": {"conditions": "abrasive cloth wool, weft, weight ratio 50%"}, "[9]": {"conditions": "abrasive cloth cotton, warp thread"}, "[10]": {"conditions": "abrasive cloth wool, warp thread"}}}
{"smiles": "C=CC[N+](CC)(CC)CC.[Br-]", "note": "[ABTEA]", "values": [{"measurement": "Triboelectrification", "setting": "[1]; abrasive cloth cotton, warp thread, weight ratio 2%", "result": 3420, "unit": "V"}, {"measurement": "Triboelectrification", "setting": "[1]; abrasive cloth cotton, warp thread, weight ratio 5%", "result": 2090, "unit": "V"}, {"measurement": "Triboelectrification", "setting": "[1]; abrasive cloth cotton, warp thread, weight ratio 10%", "result": 1030, "unit": "V"}, {"measurement": "Triboelectrification", "setting": "[1]; abrasive cloth cotton, warp thread, weight ratio 25%", "result": 30, "unit": "V"}, {"measurement": "Triboelectrification", "setting": "[1]; [5]", "result": 10, "unit": "V"}, {"measurement": "Triboelectrification", "setting": "[1]; abrasive cloth cotton, weft, weight ratio 2%", "result": 3380, "unit": "V"}, {"measurement": "Triboelectrification", "setting": "[1]; abrasive cloth cotton, weft, weight ratio 5%", "result": 3200, "unit": "V"}, {"measurement": "Triboelectrification", "setting": "[1]; abrasive cloth cotton, weft, weight ratio 10%", "result": 1180, "unit": "V"}, {"measurement": "Triboelectrification", "setting": "[1]; abrasive cloth cotton, weft, weight ratio 25%", "result": 50, "unit": "V"}, {"measurement": "Triboelectrification", "setting": "[1]; [6]", "result": 10, "unit": "V"}, {"measurement": "Triboelectrification", "setting": "[1]; abrasive cloth wool, warp thread, weight ratio 2%", "result": 1620, "unit": "V"}, {"measurement": "Triboelectrification", "setting": "[1]; abrasive cloth wool, warp thread, weight ratio 5%", "result": 1220, "unit": "V"}, {"measurement": "Triboelectrification", "setting": "[1]; abrasive cloth wool, warp thread, weight ratio 10%", "result": 160, "unit": "V"}, {"measurement": "Triboelectrification", "setting": "[1]; abrasive cloth wool, warp thread, weight ratio 25%", "result": 10, "unit": "V"}, {"measurement": "Triboelectrification", "setting": "[1]; [7]", "result": 10, "unit": "V"}, {"measurement": "Triboelectrification", "setting": "[1]; abrasive cloth wool, weft, weight ratio 2%", "result": 1860, "unit": "V"}, {"measurement": "Triboelectrification", "setting": "[1]; abrasive cloth wool, weft, weight ratio 5%", "result": 1750, "unit": "V"}, {"measurement": "Triboelectrification", "setting": "[1]; abrasive cloth wool, weft, weight ratio 10%", "result": 390, "unit": "V"}, {"measurement": "Triboelectrification", "setting": "[1]; abrasive cloth wool, weft, weight ratio 25%", "result": 20, "unit": "V"}, {"measurement": "Triboelectrification", "setting": "[1]; [8]", "result": 0, "unit": "V"}]}
{"smiles": "C=C(C)C(=O)OCC[N+](C)(C)CC.[Br-]", "note": "[E2M]", "values": [{"measurement": "Triboelectrification", "setting": "[2]; abrasive cloth cotton, warp thread, time 20 min", "result": 6160, "unit": "V"}, {"measurement": "Triboelectrification", "setting": "[2]; abrasive cloth cotton, warp thread, time 40 min", "result": 8750, "unit": "V"}, {"measurement": "Triboelectrification", "setting": "[2]; abrasive cloth cotton, warp thread, time 1 hr", "result": 3410, "unit": "V"}, {"measurement": "Triboelectrification", "setting": "[2]; abrasive cloth cotton, warp thread, time 2 hr", "result": 2780, "unit": "V"}, {"measurement": "Triboelectrification", "setting": "[2]; abrasive cloth cotton, warp thread, time 4 hr", "result": 1960, "unit": "V"}, {"measurement": "Triboelectrification", "setting": "[2]; abrasive cloth cotton, weft, time 20 min", "result": 4510, "unit": "V"}, {"measurement": "Triboelectrification", "setting": "[2]; abrasive cloth cotton, weft, time 40 min", "result": 8780, "unit": "V"}, {"measurement": "Triboelectrification", "setting": "[2]; abrasive cloth cotton, weft, time 1 hr", "result": 4910, "unit": "V"}, {"measurement": "Triboelectrification", "setting": "[2]; abrasive cloth cotton, weft, time 2 hr", "result": 6050, "unit": "V"}, {"measurement": "Triboelectrification", "setting": "[2]; abrasive cloth cotton, weft, time 4 hr", "result": 4640, "unit": "V"}, {"measurement": "Triboelectrification", "setting": "[2]; abrasive cloth wool, warp thread, time 20 min", "result": 8400, "unit": "V"}, {"measurement": "Triboelectrification", "setting": "[2]; abrasive cloth wool, warp thread, time 40 min", "result": 7260, "unit": "V"}, {"measurement": "Triboelectrification", "setting": "[2]; abrasive cloth wool, warp thread, time 1 hr", "result": 9930, "unit": "V"}, {"measurement": "Triboelectrification", "setting": "[2]; abrasive cloth wool, warp thread, time 2 hr", "result": 7860, "unit": "V"}, {"measurement": "Triboelectrification", "setting": "[2]; abrasive cloth wool, warp thread, time 4 hr", "result": 3860, "unit": "V"}, {"measurement": "Triboelectrification", "setting": "[2]; abrasive cloth wool, weft, time 20 min", "result": 8680, "unit": "V"}, {"measurement": "Triboelectrification", "setting": "[2]; abrasive cloth wool, weft, time 40 min", "result": 5480, "unit": "V"}, {"measurement": "Triboelectrification", "setting": "[2]; abrasive cloth wool, weft, time 1 hr", "result": 11620, "unit": "V"}, {"measurement": "Triboelectrification", "setting": "[2]; abrasive cloth wool, weft, time 2 hr", "result": 4000, "unit": "V"}, {"measurement": "Triboelectrification", "setting": "[2]; abrasive cloth wool, weft, time 4 hr", "result": 2690, "unit": "V"}, {"measurement": "Triboelectrification", "setting": "[1]; abrasive cloth cotton, warp thread, 50%, time 1 minute", "result": 80, "unit": "V"}, {"measurement": "Triboelectrification", "setting": "[1]; abrasive cloth cotton, warp thread, 50%, time 5 minutes", "result": 80, "unit": "V"}, {"measurement": "Triboelectrification", "setting": "[1]; abrasive cloth cotton, warp thread, 50%, time 10 minutes", "result": 130, "unit": "V"}, {"measurement": "Triboelectrification", "setting": "[1]; abrasive cloth cotton, warp thread, 50%, time 30 minutes", "result": 130, "unit": "V"}, {"measurement": "Triboelectrification", "setting": "[1]; abrasive cloth cotton, warp thread, 50%, time 60 minutes", "result": 120, "unit": "V"}, {"measurement": "Triboelectrification", "setting": "[1]; [5]", "result": 80, "unit": "V"}, {"measurement": "Triboelectrification", "setting": "[1]; abrasive cloth cotton, weft, 50%, time 1 minute", "result": 70, "unit": "V"}, {"measurement": "Triboelectrification", "setting": "[1]; abrasive cloth cotton, weft, 50%, time 5 minutes", "result": 20, "unit": "V"}, {"measurement": "Triboelectrification", "setting": "[1]; abrasive cloth cotton, weft, 50%, time 10 minutes", "result": 70, "unit": "V"}, {"measurement": "Triboelectrification", "setting": "[1]; abrasive cloth cotton, weft, 50%, time 30 minutes", "result": 90, "unit": "V"}, {"measurement": "Triboelectrification", "setting": "[1]; abrasive cloth cotton, weft, 50%, time 60 minutes", "result": 60, "unit": "V"}, {"measurement": "Triboelectrification", "setting": "[1]; [6]", "result": 70, "unit": "V"}, {"measurement": "Triboelectrification", "setting": "[1]; abrasive cloth wool, warp thread, 50%, time 1 minute", "result": 10, "unit": "V"}, {"measurement": "Triboelectrification", "setting": "[1]; abrasive cloth wool, warp thread, 50%, time 5 minutes", "result": "10 or lower V"}, {"measurement": "Triboelectrification", "setting": "[1]; abrasive cloth wool, warp thread, 50%, time 10 minutes", "result": 60, "unit": "V"}, {"measurement": "Triboelectrification", "setting": "[1]; abrasive cloth wool, warp thread, 50%, time 30 minutes", "result": 150, "unit": "V"}, {"measurement": "Triboelectrification", "setting": "[1]; abrasive cloth wool, warp thread, 50%, time 60 minutes", "result": 130, "unit": "V"}, {"measurement": "Triboelectrification", "setting": "[1]; [7]", "result": 10, "unit": "V"}, {"measurement": "Triboelectrification", "setting": "[1]; abrasive cloth wool, weft, 50%, time 1 minute", "result": "10 or lower V"}, {"measurement": "Triboelectrification", "setting": "[1]; abrasive cloth wool, weft, 50%, time 5 minutes", "result": "10 or lower V"}, {"measurement": "Triboelectrification", "setting": "[1]; abrasive cloth wool, weft, 50%, time 10 minutes", "result": "10 or lower V"}, {"measurement": "Triboelectrification", "setting": "[1]; abrasive cloth wool, weft, 50%, time 30 minutes", "result": 70, "unit": "V"}, {"measurement": "Triboelectrification", "setting": "[1]; abrasive cloth wool, weft, 50%, time 60 minutes", "result": 110, "unit": "V"}, {"measurement": "Triboelectrification", "setting": "[1]; [8]", "result": "10 or lower V"}, {"measurement": "Triboelectrification", "setting": "[3]; [9]", "result": "10 or lower V"}, {"measurement": "Triboelectrification", "setting": "[3]; abrasive cloth cotton, weft", "result": "10 or lower V"}, {"measurement": "Triboelectrification", "setting": "[3]; [10]", "result": "10 or lower V"}, {"measurement": "Triboelectrification", "setting": "[3]; abrasive cloth wool, weft", "result": "10 or lower V"}, {"measurement": "Triboelectrification", "setting": "[4]; [9]", "result": "10 or lower V"}, {"measurement": "Triboelectrification", "setting": "[4]; abrasive cloth cotton, weft", "result": "10 or lower V"}, {"measurement": "Triboelectrification", "setting": "[4]; [10]", "result": "10 or lower V"}, {"measurement": "Triboelectrification", "setting": "[4]; abrasive cloth wool, weft", "result": "10 or lower V"}]}
{"smiles": "C=CC[N+](CC)(CC)CC.[Cl-]", "note": "[ACTEA]", "values": [{"measurement": "Triboelectrification", "setting": "[1]; [5]", "result": 10, "unit": "V"}, {"measurement": "Triboelectrification", "setting": "[1]; [6]", "result": 10, "unit": "V"}, {"measurement": "Triboelectrification", "setting": "[1]; [7]", "result": 10, "unit": "V"}, {"measurement": "Triboelectrification", "setting": "[1]; [8]", "result": 10, "unit": "V"}]}
